Test results taken from PMC5040591.
No constants are given. Whether binding was seen depends on the method and setting. Binding seen in cells or lysates may run through a third protein. Some results given as binding are weak or reduced against the parent protein; the word gives no strength.

The chains behind the UniProt entries cited, without tags or fusion partners.
UniProt Q6EVK6: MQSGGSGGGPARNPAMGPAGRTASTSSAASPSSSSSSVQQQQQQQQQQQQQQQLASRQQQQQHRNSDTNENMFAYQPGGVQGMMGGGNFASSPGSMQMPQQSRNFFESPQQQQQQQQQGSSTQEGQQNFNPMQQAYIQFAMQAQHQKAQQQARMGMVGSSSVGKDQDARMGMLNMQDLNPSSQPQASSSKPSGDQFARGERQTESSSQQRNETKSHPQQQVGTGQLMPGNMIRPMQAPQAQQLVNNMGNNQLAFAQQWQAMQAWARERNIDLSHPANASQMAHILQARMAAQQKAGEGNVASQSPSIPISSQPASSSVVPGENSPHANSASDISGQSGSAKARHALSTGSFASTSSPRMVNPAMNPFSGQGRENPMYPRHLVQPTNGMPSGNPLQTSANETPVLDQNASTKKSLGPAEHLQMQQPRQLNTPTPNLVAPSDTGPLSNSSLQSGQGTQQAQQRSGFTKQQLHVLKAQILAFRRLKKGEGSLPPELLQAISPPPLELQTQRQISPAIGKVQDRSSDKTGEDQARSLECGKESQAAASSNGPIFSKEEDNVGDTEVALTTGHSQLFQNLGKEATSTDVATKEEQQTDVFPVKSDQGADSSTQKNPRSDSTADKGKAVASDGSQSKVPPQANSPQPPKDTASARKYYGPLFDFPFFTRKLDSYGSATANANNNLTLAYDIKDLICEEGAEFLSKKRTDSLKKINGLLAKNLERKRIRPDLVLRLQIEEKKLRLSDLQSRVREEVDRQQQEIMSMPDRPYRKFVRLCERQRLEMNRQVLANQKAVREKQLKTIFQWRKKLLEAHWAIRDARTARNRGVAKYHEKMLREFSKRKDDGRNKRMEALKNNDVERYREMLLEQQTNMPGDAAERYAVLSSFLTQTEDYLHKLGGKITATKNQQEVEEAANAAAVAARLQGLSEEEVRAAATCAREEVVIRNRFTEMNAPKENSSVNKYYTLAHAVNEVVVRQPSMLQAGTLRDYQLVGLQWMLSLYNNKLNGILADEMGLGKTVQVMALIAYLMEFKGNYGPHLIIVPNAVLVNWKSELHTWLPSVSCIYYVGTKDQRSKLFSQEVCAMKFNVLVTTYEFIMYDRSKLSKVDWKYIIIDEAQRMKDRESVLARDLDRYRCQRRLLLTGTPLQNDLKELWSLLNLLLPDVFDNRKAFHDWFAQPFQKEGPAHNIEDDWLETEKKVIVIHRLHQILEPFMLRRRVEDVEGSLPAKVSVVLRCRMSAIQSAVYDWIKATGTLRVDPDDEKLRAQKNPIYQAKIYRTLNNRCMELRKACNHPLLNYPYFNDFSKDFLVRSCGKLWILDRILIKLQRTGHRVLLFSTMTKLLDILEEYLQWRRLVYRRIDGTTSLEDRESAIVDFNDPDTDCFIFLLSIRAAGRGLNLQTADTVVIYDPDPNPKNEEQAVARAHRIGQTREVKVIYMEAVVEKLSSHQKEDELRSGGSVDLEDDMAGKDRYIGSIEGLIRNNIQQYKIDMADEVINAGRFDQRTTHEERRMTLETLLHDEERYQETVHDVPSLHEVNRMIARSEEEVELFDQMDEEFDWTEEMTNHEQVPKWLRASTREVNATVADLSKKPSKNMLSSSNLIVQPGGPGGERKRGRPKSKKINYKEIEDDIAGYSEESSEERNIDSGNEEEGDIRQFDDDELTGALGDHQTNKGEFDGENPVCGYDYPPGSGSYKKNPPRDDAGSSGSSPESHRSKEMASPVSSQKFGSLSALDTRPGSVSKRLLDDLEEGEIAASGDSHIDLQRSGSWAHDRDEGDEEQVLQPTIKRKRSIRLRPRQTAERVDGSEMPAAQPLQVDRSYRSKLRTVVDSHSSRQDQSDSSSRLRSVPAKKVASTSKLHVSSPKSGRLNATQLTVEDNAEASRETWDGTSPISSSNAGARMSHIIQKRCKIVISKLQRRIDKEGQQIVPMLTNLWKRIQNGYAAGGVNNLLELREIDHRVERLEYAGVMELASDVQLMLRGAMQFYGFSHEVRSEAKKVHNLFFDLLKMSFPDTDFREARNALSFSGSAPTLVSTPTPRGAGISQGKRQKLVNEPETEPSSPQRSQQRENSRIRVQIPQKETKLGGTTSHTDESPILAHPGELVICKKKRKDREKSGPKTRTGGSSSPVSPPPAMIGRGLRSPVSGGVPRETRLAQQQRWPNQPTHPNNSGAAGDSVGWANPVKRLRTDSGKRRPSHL
UniProt Q8RWY3: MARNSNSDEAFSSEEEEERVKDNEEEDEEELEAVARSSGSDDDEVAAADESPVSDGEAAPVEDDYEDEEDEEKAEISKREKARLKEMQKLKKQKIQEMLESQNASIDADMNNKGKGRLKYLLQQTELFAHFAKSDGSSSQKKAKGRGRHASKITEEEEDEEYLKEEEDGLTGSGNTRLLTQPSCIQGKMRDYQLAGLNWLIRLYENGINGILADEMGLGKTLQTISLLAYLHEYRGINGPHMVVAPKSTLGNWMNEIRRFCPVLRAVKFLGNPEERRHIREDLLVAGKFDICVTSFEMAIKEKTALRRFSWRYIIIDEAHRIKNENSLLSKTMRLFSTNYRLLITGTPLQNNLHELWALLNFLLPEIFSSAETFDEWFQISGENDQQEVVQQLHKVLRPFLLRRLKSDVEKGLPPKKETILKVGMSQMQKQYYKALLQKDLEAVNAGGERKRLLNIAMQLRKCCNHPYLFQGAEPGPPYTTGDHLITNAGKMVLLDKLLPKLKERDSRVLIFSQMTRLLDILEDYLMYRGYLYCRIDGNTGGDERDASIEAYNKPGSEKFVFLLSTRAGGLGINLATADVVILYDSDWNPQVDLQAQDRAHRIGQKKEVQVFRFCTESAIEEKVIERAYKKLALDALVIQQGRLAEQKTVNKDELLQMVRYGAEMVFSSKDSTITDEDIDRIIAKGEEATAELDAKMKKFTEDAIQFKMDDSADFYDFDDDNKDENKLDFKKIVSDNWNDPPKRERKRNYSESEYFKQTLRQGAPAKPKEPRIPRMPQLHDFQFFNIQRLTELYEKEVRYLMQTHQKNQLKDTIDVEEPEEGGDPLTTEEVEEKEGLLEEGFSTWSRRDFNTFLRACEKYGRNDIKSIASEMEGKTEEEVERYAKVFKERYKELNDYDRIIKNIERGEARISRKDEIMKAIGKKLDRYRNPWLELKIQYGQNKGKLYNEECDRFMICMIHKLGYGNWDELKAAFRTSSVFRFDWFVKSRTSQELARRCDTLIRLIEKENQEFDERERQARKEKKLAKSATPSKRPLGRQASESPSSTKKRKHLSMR
UniProt F4JY24: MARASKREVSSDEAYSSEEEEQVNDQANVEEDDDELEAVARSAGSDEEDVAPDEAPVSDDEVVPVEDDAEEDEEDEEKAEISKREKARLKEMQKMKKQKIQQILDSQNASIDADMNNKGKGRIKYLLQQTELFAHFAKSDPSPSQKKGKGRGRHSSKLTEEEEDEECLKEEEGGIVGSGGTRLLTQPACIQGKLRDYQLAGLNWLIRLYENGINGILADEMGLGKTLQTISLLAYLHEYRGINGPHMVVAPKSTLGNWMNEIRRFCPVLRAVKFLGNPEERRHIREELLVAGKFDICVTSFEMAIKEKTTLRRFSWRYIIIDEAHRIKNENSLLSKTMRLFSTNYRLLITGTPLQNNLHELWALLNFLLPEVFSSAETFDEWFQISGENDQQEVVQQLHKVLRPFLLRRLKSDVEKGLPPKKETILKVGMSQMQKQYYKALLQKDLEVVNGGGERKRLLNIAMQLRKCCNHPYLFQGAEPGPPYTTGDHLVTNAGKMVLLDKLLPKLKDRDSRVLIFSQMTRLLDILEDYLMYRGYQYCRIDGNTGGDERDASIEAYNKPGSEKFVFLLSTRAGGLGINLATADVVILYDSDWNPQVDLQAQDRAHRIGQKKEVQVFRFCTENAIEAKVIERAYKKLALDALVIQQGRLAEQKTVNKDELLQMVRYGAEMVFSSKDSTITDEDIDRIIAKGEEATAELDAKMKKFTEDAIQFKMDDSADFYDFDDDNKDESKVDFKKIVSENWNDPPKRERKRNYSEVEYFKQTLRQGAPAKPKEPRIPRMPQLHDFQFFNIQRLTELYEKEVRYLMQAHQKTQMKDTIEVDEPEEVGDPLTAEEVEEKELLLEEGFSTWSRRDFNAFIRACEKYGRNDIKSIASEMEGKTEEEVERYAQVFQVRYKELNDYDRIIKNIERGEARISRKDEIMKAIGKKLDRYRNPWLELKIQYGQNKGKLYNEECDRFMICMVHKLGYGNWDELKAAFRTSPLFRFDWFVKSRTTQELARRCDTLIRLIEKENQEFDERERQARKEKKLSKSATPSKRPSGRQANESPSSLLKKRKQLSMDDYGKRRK

Biological target: T1, YFPN-FGT1 (A. thaliana) (UniProt F4IF36)
T1 sequence: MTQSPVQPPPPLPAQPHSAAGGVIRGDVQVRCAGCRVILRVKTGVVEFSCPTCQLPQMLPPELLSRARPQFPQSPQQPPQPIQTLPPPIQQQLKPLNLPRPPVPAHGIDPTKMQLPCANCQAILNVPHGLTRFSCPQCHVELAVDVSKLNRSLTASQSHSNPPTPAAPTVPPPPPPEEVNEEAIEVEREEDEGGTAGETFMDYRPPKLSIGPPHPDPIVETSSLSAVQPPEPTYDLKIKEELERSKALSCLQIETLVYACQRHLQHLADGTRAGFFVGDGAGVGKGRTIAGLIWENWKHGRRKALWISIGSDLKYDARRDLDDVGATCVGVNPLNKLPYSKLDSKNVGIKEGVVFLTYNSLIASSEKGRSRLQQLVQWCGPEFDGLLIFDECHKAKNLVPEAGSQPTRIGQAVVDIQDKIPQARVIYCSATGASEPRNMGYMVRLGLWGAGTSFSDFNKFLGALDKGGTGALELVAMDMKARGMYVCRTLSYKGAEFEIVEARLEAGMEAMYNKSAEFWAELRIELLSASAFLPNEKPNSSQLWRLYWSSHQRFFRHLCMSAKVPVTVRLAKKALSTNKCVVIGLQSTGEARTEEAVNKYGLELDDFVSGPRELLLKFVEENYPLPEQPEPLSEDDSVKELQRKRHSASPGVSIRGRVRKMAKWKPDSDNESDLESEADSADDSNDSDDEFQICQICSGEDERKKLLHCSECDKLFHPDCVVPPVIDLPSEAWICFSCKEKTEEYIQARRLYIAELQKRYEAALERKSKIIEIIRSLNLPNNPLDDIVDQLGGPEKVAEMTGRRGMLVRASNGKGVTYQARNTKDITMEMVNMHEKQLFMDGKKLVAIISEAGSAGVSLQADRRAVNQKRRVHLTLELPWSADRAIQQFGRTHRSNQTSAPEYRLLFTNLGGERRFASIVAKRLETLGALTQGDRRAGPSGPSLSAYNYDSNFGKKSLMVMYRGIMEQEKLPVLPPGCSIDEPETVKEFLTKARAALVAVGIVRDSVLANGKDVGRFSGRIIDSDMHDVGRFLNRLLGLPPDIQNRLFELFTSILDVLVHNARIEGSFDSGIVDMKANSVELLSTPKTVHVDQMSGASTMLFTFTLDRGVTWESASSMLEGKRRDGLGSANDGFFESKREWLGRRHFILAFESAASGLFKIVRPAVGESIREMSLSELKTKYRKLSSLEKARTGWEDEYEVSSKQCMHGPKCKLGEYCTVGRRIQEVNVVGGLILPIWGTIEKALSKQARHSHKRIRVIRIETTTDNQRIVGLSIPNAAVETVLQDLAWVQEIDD
Test: split reporter; BiFC: YFPN and YFPC fusion constructs co-expressed in Nicotiana benthamiana leaves by A. tumefaciens infiltration; YFP fluorescence analysed 2 d after infiltration by confocal microscopy

binding | Substance
binds | YFPC-BRM (from UniProt Q6EVK6 1-2193)
binds | YFPC-CHR11 (from UniProt Q8RWY3 1-1056)
binds | YFPC-CHR17 (from UniProt F4JY24 1-1069)
